Laboratory results: patent US20190389910A1 (ORUM THERAPEUTICS, published 2019)
No constants are given. Whether binding was seen depends on the method and setting. Some entries that bind do so weakly or less than the wild type.

Tests used:
[1] = target: T1, EpCAM (epithelial cell adhesion molecule) expressed on the cell surface of human tumor cells (human) (UniProt P16422); assay: flow cytometry, 100 nM antibody, 4 °C
T1 sequence (looked up): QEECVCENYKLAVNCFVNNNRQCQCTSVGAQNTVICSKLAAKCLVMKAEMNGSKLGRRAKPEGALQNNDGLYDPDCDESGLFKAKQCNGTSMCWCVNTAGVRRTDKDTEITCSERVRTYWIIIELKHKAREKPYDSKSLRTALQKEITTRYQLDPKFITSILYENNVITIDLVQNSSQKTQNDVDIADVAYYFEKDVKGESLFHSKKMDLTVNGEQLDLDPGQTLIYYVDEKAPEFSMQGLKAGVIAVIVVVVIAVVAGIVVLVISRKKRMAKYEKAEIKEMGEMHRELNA

[2] = target: T1, EpCAM (epithelial cell adhesion molecule) expressed on the cell surface of human tumor cells (human); assay: flow cytometry on HCT116, SW480 and HeLa cells; 100 nM antibody with 300 IU/mL heparin, 1 h at 4 °C, Alexa488 anti-human Fc

B1: epCT05 (antibody, V domains shown)
VH: EVQLVESGGGLVQPGGSLRLSCAASGYTFTSYVMHWVRQAPGKGLEWVSAINPYNDGNYYADSVKGRFTISRDNSRKTLYLQMNSLRAEDTAVYYCARGAYKRGYAMDYWGQGTTVTVSS
VL: DIQMTQSPSSLSASVGDRVTITCKSSQSLLNSRDGKNYLAWYQQKPGKAPKLLIYDASNLETGVPSRFSGSGSGTDFTFTISSLQPEDIATYFCQQYWYWMYTFGGGTKVEIKR
modifications: disulfide bond Cys5-Cys10 closes the cyclic peptide
- binding [1]: binds
- binding [2]: binds
